Our source for the cell number change and AC50 values is PubChem BioAssay AID2685 (National Center for Advancing Translational Sciences (NCATS), 2010).

This assay is described as follows: qHTS Assay for Lipid Storage Modulators in Drosophila S3 Cells.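 For cell number change: cells counted by Cell Tracker Red CMTPX staining in the red channel.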 Particulars: BODIPY lipid droplet fluorescence, 18-24 h; for cell number change: measured here: cell count max response, cells fed with added oleic acid. The gist of the method: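 Laser-scanning cytometry quantifies lipid droplet accumulation (500–530 nm total intensity; droplet/cell object ratio) in oleic acid-fed (400 uM added) Drosophila S3 cells treated with a concentration series. 20 uM Triacsin C defined 100% inhibition.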

Setting [1] is: measured here: lipid fluorescence (Fed channel) AC50, cells fed with added oleic acid.
[2] abbreviates: measured here: cell number channel AC50, cells fed with added oleic acid.

Some of the results follow. The main result of the screen is listed elsewhere. These columns were measured beside it and carry no call. Compounds called inactive in the main read-out are mostly missing here. Words in brackets tell the shape of the fitted curve; partial curves, single points and poor fits give uncertain potencies.

As a reminder, the AC50 is the midpoint of the concentration-response curve, whichever way the signal moves. Low readings indicate greater potency, high ones weaker potency. `O=C(NC1CCCCC1)c1cccnc1Sc1ccccc1Cl`: the cell number change amounted to 13.5%. The AC50 under setting [1] was 6.51 µM [rising, single point].
For the compound `COC(=O)c1nn(-c2cccc(Cl)c2)ccc1=O`, the cell number change was -20.2%.
Consider `COC(=O)c1cnc(SCc2ccc(Cl)cc2)n1C`, for which the cell number change came to 20.7%. For the same compound, the AC50 under setting [2] was 1.46 µM [falling, partial curve]. Besides, the AC50 under setting [1] is 1.3 µM [falling, full curve].
For `Cc1c(NC(=O)c2cccc(NC(=O)c3ccco3)c2)cccc1C(=O)O`, the cell number change is -23.9%. Also, under setting [1], the AC50 is 29.1 µM [falling, single point].
For `CCOc1ccccc1NC(=S)N1CCN(c2ccccc2)CC1`, the cell number change is -34.1%. For the same compound, under setting [2], the AC50 was 13 µM [falling, single point]. Also, under setting [1], the AC50 was 10.3 µM [falling, partial curve].
For `O=C(Nc1ccc(S(=O)(=O)Nc2ncccn2)cc1)c1ccc(Cl)c([N+](=O)[O-])c1`, the cell number change was -6.59%. Further, under setting [1], the AC50 was 23.1 µM [rising, single point].
As to `CCCCn1c(=N)n(CC(O)COc2ccc(C)cc2)c2ccccc21` (centres undefined), the cell number change is -37.5%. Moreover, the AC50 under setting [2] was 18.4 µM [falling, single point]. Besides, under setting [1], the concentration at half-maximal activity (AC50) was 25.9 µM [falling, single point].
Turning to `NCCNc1ccc([N+](=O)[O-])c(NC2CC2)c1`, the half-maximal activity concentration (AC50) is 0.0058 µM [falling, full curve, poor fit] under setting [2] and 29.1 µM [rising, single point] under setting [1].
For the compound `COc1ccc(S(=O)(=O)NC2CCCC2)c(Cl)c1Cl`, the cell number change was -9.64%. The AC50 under setting [2] is 0.731 µM [falling, full curve].
On to `O=C(/C=C/c1ccc(-c2ccccc2[N+](=O)[O-])o1)c1ccccc1`, for which the cell number change is -47.4%. For the same compound, the AC50 under setting [2] was 29.1 µM [falling, single point]. Also, under setting [1], the half-maximal activity concentration (AC50) is 1.84 µM [falling, partial curve].
With `O=C(N/N=C/c1ccc(O)c(O)c1)N/N=C/c1ccc(O)c(O)c1`, the cell number change was -10.5%.
As for `O=C(Nc1ccnn1C1CCN(Cc2cccc(OCCO)c2)CC1)c1cccc(F)c1`, the cell number change is -7.43%. Besides, the concentration at half-maximal activity (AC50) under setting [2] was 0.0731 µM [rising, full curve, poor fit]. In addition, the AC50 under setting [1] is 29.1 µM [rising, single point].
Take `CC(=O)Nc1ccc(N(C(=O)Cc2cccs2)C(C(=O)NC2CCCC2)c2ccncc2)cc1` (centres undefined): the cell number change was -26.9%. Also, the AC50 under setting [1] was 0.116 µM [rising, single point].
With `C[C@@H](O)C1NC(=O)[C@H](CCCCN)NC(=O)c2cc([N+](=O)[O-])cc(F)c2NCCCC[C@@H](C(N)=O)NC1=O` (some centres undefined), the cell number change is 51.4%. Moreover, the AC50 under setting [2] was 5.8 µM [rising, partial curve]. The AC50 under setting [1] is 6.51 µM [rising, partial curve].
Regarding `Cc1ccc(C(=O)OCC(=O)Nc2sccc2C(N)=O)cc1NC(=O)c1ccco1`, the cell number change came to 10.7%. Further, under setting [2], the AC50 is 1.84 µM [rising, partial curve].
In the case of `CCOC(=O)C1=C(C)NC(=O)NC1c1ccc(N2CCC(c3ccccc3)=N2)cc1` (centres undefined), the cell number change was 4.16%. Under setting [1], the AC50 is 20.6 µM [falling, partial curve, poor fit].
Take `O=S(=O)(c1ccc(-c2csc(-c3cccnc3)n2)cc1)N1CCCC1`: the cell number change was -24.8%. The AC50 under setting [1] was 1.03 µM [rising, full curve].
In the case of `C/C(CCc1ccccc1)=N\NC(=O)CCc1ccccc1`, the cell number change was -7.86%. Further, the AC50 under setting [2] is 6.51 µM [falling, single point]. Also, the AC50 under setting [1] was 11.6 µM [rising, partial curve].
`CCOC(=O)c1[nH]c(C)c(CN(Cc2ccco2)C(=O)C(F)(F)F)c1C`: the cell number change is -22.7%. Also, under setting [1], the AC50 was 29.1 µM [falling, single point].
For `Cc1ccc(C(=O)Oc2coc(CSc3nnc(NC(=O)C4CC4)s3)cc2=O)cc1`, the AC50 under setting [1] is 0.259 µM [rising, full curve, poor fit].
For the compound `CCN(CC)c1ccc(/C=C2\SC(N)=NC2=O)cc1`, the cell number change stood at 6.88%.
Regarding `O=C(NC1CCSc2ccccc21)c1cccc(Cl)c1` (centres undefined), the cell number change came out at 12.4%. The AC50 under setting [1] was 29.1 µM [falling, single point].
Consider `CCN(CC)S(=O)(=O)c1ccc(C(=O)NCCSc2c[nH]c3ccccc23)cc1`, for which the AC50 under setting [2] was 0.58 µM [rising, single point].
In the case of `CCOC(=O)c1ccc(NC(=O)N2CCOCC2)cc1`, the cell number change is -22.4%.
For the compound `CC1(C)CC(=O)C2=C(C1)NC(Nc1nc3ccccc3o1)=NC21CCCC1`, the cell number change is -120%. Besides, the AC50 under setting [2] was 25.9 µM [falling, partial curve]. Under setting [1], the AC50 is 29.1 µM [falling, partial curve].
With `Cc1ccccc1-n1ncc2c1CC(C)(C)CC2NC(=O)CCn1cncn1` (centres undefined), the cell number change worked out at 16.6%.
Take `O=C1CCC(C(=O)OCc2ccccc2)N1` (centres undefined): the cell number change was 3.29%. In addition, the AC50 under setting [1] is 0.13 µM [falling, full curve].
Take `CCOC(=O)c1c(C)nc2c(c1-c1ccccc1)C(=O)c1ccccc1-2`: the cell number change is -25.7%. The AC50 under setting [1] is 0.58 µM [falling, single point].
In the case of `COc1cc(C(=O)NCc2nnc(SCC(=O)NC3CCCCC3)o2)cc(OC)c1OC`, the cell number change was -9.91%. Besides, the AC50 under setting [1] was 6.51 µM [rising, single point].
As to `O=C(Cc1ccc(Br)cc1)Nc1ncc([N+](=O)[O-])s1`, the cell number change was -10.9%. Moreover, the AC50 under setting [1] was 7.31 µM [falling, partial curve].
As for `C/C(CC(=O)Nc1cccc(Cl)c1Cl)=N\NC(=O)c1ccccc1N`, the cell number change was determined as 4.97%. Under setting [1], the AC50 was 0.0058 µM [rising, full curve, poor fit].
Turning to `Cc1cccc(-n2c(CCn3nc(C)c([N+](=O)[O-])c3C)n[nH]c2=S)c1`, the cell number change worked out at 38.6%. Moreover, the AC50 under setting [2] was 0.651 µM [rising, full curve, poor fit]. Further, the AC50 under setting [1] is 0.651 µM [rising, single point].
As for `Cc1c(NC(=O)C(C)OC(=O)c2cccnc2Cl)c(=O)n(-c2ccccc2)n1C` (centres undefined), the cell number change is 3.08%.
Still for that read-out and setting: under `Cc1c(C(=O)Nc2c(N)nc(SCC(=O)NCC3CCCO3)[nH]c2=O)cccc1[N+](=O)[O-]` (centres undefined) stands -13.9%.
Still for that read-out and setting: the result for `CCOC(=O)C1CCCN(Cc2nc(N)nc(Nc3ccc(Cl)cc3)n2)C1` (centres undefined) reads -18.9%.
For the compound `O=C(OCCN=C1NS(=O)(=O)c2ccccc21)c1ccccc1F`, the cell number change stood at 2.42%. Further, the AC50 under setting [1] is 29.1 µM [falling, single point].
Turning to `COc1cc2c(cc1NC(=O)c1cccc(S(=O)(=O)N(C)C)c1)oc1ccccc12`, the cell number change stood at 8.13%. In addition, the AC50 under setting [1] was 0.116 µM [rising, full curve, poor fit].
As to `COc1ccc2cc(Br)ccc2c1CC(=O)N(C)C`, the cell number change turned out to be 164%.
As to `COc1ccc(CNC(=O)c2ccc(=O)oc2)cc1OC`, the cell number change was 7.61%. For the same compound, under setting [1], the AC50 was 0.00517 µM [falling, full curve, poor fit].
As to `Cc1ccc(C(C[N+](=O)[O-])c2c(N)n(C)c(=O)n(C)c2=O)cc1` (centres undefined), the cell number change was -36.4%. Also, under setting [2], the half-maximal activity concentration (AC50) was 29.1 µM [falling, single point]. The AC50 under setting [1] was 29.1 µM [falling, single point].
On to `CCS(=O)(=O)N1Cc2ccccc2CC1C(=O)N(C)Cc1ccc(OC)c(F)c1` (centres undefined), for which the cell number change stood at 9.58%.
On the same count and under the same terms, the result for `O=C(NCc1ccc(/C=c2\sc3n(c2=O)CCN=3)o1)C(=O)Nc1ccccc1` reads -28.8%.
As to `O=C(Nc1ccccc1N1CCOCC1)C1CCCCN1S(=O)(=O)c1ccccc1` (centres undefined), the cell number change was found to be 24.4%. The AC50 under setting [2] is 2.59 µM [rising, full curve, poor fit]. The AC50 under setting [1] was 5.8 µM [rising, full curve].
For `CCN(CC(=O)NC1CCCC1)S(=O)(=O)c1ccc(Br)cc1`, the cell number change is -13.6%. Also, under setting [1], the AC50 was 29.1 µM [falling, single point].
Regarding `O=C(CCC(=O)OCc1cccc([N+](=O)[O-])c1)Nc1ccc(F)cc1`, the cell number change was 12.4%. In addition, the half-maximal activity concentration (AC50) under setting [2] is 6.51 µM [rising, single point]. The AC50 under setting [1] is 3.66 µM [rising, single point].
As to `Cc1cccc(CS(=O)(=O)Cc2ccc(C(=O)NCc3cccs3)o2)c1`, the cell number change was -23.6%. In addition, the AC50 under setting [1] was 29.1 µM [falling, single point].
Take `CCCCC(CC)CNC(=O)CN1C(=O)NC2(CCc3ccccc32)C1=O` (centres undefined): the cell number change is 22.5%. Moreover, under setting [2], the AC50 is 5.17 µM [rising, partial curve, poor fit]. The AC50 under setting [1] was 0.058 µM [falling, full curve, poor fit].
`Cc1cc(NC(=O)C2CC(=O)N(c3cccc(Cl)c3)C2)no1` (centres undefined): the cell number change was 20%. The AC50 under setting [2] is 6.51 µM [rising, partial curve].
For the compound `CCCCn1nc(CC(=O)O)c2ccccc2c1=O`, the cell number change is -5.14%. In addition, the AC50 under setting [1] is 4.11 µM [falling, full curve].
Take `CCn1c(CNc2ccccc2Cl)nnc1SCC(=O)OC1CCCCC1`: the cell number change worked out at 1.84%. The concentration at half-maximal activity (AC50) under setting [1] is 1.84 µM [falling, full curve].
Turning to `COc1cc(-c2nnc(SCc3c(F)cccc3Cl)o2)cc(OC)c1OC`, the AC50 by setting is: under setting [2], 0.58 µM [rising, single point]; under setting [1], 29.1 µM [rising, single point].
`C=CCn1c(Cc2ccccc2)nc2c(cnn2-c2ccccc2)c1=O`: the cell number change is 173%. The AC50 under setting [2] is 7.31 µM [rising, partial curve]. Further, the AC50 under setting [1] was 8.2 µM [rising, partial curve].
As for `Cc1ccc([N+](=O)[O-])cc1S(=O)(=O)Nc1ccc(C(=O)NCc2ccccn2)cc1`, the cell number change was found to be 38.7%. The half-maximal activity concentration (AC50) under setting [2] was 29.1 µM [rising, single point].
Take `NC(=O)c1cc(-c2ccccc2)sc1NC(=O)CN1CCCCC1`: the cell number change is -24.8%. Moreover, under setting [1], the AC50 was 29.1 µM [falling, single point].
On to `CN(C)S(=O)(=O)c1ccc(C(=O)NNc2nc(-c3ccccc3)c3cc(Br)ccc3n2)cc1`, for which the cell number change is 25.2%. In addition, the AC50 under setting [1] is 8.2 µM [rising, partial curve].
`COc1ccccc1C1(O)C(=O)Nc2ccccc21` (centres undefined): the cell number change was -4.63%. Further, the AC50 under setting [1] was 0.731 µM [falling, partial curve, poor fit].
Regarding `Nc1c(C(=O)CSc2n[nH]c(-c3ccccc3Br)n2)c(=O)[nH]c(=O)n1C1CC1`, the cell number change was found to be 32.9%. Under setting [2], the AC50 was 18.4 µM [rising, single point]. The AC50 under setting [1] is 7.31 µM [rising, partial curve].
As to `CC(C)(C)c1ccc(C(=O)Nc2ccc(F)cc2)s1`, the cell number change is -22.1%. Moreover, the AC50 under setting [2] is 1.03 µM [falling, full curve, poor fit]. Further, the AC50 under setting [1] is 11.6 µM [falling, partial curve].
